# According to PubChem BioAssay AID2685 (National Center for Advancing Translational Sciences (NCATS), 2010):
# Some of the results follow. Further columns of the screen follow, without active or inactive calls. The list favours compounds with an active or inconclusive main result. Words in brackets tell the shape of the fitted curve; partial curves, single points and poor fits give uncertain potencies.
# Assay: qHTS Assay for Lipid Storage Modulators in Drosophila S3 Cells;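 for cell number change: cells counted by Cell Tracker Red CMTPX staining in the red channel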
# Details: BODIPY lipid droplet fluorescence, 18-24 h; for cell number change: measured here: cell count max response, cells fed with added oleic acid
# Summary of the method: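 Drosophila S3 cells got compounds at several concentrations plus oleic acid (400 uM solution). Laser-scanning cytometry with 488 nm excitation read lipid droplets at 500-530 nm and cells at 575-640 nm. Percent activity was relative to 20 uM Triacsin C.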
# [1] = measured here: cell number channel AC50, cells fed with added oleic acid
# [2] = measured here: lipid fluorescence (Fed channel) AC50, cells fed with added oleic acid
SMILES,cell number change [%],AC50 [1],AC50 [2]
COc1cccc(C(=O)NNC(=O)Cc2ccc(Cl)cc2)c1,-36.2,"0.13 µM [falling, partial curve]","0.206 µM [falling, full curve, poor fit]"
COc1ccc(/C=N/Nc2ccc(C(F)(F)F)cc2[N+](=O)[O-])cc1O,-24.9,,"0.651 µM [rising, partial curve, poor fit]"
Cc1ccc(S(=O)(=O)N(C)C)cc1NC(=O)c1ccccc1SCC(=O)N1CCCC1,-2.06,,
COC(=O)c1nn(-c2ccccc2)nc1-c1nn(-c2ccccc2)nc1C(=O)OC,-12.6,,
Cc1ccsc1/C=N/NC(=O)c1sccc1C,-3.77,,"29.1 µM [falling, single point]"
O=C(c1ccc(Cl)nc1)N1CCc2ccccc2C1,-1.52,,
CC(C)CNC(=O)C(=O)Nc1cc2c3c(c1)C(C)C(=O)N3CCC2 (stereo not drawn),-24.7,,
CCOc1cc(CC(=O)N[C@@H](CC(C)C)c2ccccc2N2CCCCC2)ccc1C(=O)O,-31.3,"20.6 µM [falling, single point]","23.1 µM [falling, single point]"
CCN(CC(=O)Nc1c(F)cccc1F)C(=O)CN1c2cccc3cccc(c23)S1(=O)=O,-40,"20.6 µM [falling, single point]","7.31 µM [falling, partial curve]"
CCOc1ccc(-n2c(=S)sc3c(=O)[nH]c(SCC(=O)NCC4CCCO4)nc32)cc1 (stereo not drawn),-1.01,,"1.64 µM [rising, partial curve, poor fit]"
COc1ccc2oc(C(=O)Nc3ccc(C)cn3)c(C)c2c1,25,,
Cc1ccc(C(=O)N(Cc2sccc2C)C2CCS(=O)(=O)C2)cc1 (stereo not drawn),7.13,,
Cc1ccc(NC(=O)Cn2c(=O)c3cccn3c3ccccc32)cc1,49.2,"23.1 µM [rising, partial curve, poor fit]","23.1 µM [falling, single point]"
O=C(COC(=O)CSc1ccc(F)cc1)NNC(=O)c1ccc([N+](=O)[O-])cc1,6.74,,"20.6 µM [falling, partial curve, poor fit]"
O=C1c2ccccc2NC(c2ccc(-c3ccc(F)cc3)o2)N1O (stereo not drawn),-24.6,,
O=C(O)C(Cc1c[nH]c2ccccc12)N1C(=O)c2ccccc2C1=O (stereo not drawn),-4.27,,
Cc1cnc(C(=O)OC(C)C(=O)NCc2ccccc2)cn1 (stereo not drawn),-0.549,,"6.51 µM [falling, single point]"
Cc1cccn2c(=O)c3cc(C(=O)N4CCN(Cc5ccccc5)CC4)sc3nc12,36.6,"29.1 µM [rising, single point]","25.9 µM [rising, partial curve, poor fit]"
COc1cc(C(=O)Nc2cccc(-c3nc4cc(C)ccc4o3)c2C)cc(OC)c1OC,-52.2,"16.4 µM [falling, partial curve]","29.1 µM [falling, single point]"
CC(C)(C)c1ccc(C(=O)NC(=O)COC(=O)c2ccco2)cc1,-39,"4.11 µM [falling, full curve]",
COc1ccc(CCN2CC(C(=O)O)CC2=O)cc1 (stereo not drawn),-5.19,,

SMILES,cell number change [%],AC50 [1],AC50 [2]
CCCCCCCC(=O)NC(Nc1ccccc1OC)C(Cl)(Cl)Cl (stereo not drawn),5.61,,"25.9 µM [rising, partial curve, poor fit]"
O=C(O)c1ccc2c(c1)c1c3n2CCNC3CCC1 (stereo not drawn),27.6,,"18.4 µM [rising, single point]"
CCOC(=O)C1=CC[C@H]2c3c(c4ccccc4n3C)C(=O)C1N2C(=O)OC(C)(C)C,-39.4,"2.59 µM [falling, partial curve]","2.31 µM [falling, partial curve]"
O=C(CCN1CCOCC1)NNC(=O)Nc1cccc(Cl)c1,-7.51,,"18.4 µM [rising, partial curve]"
c1coc(-c2nc3nc4ccccc4nc3n2-c2ccc3c(c2)OCCO3)c1,-20.3,,"0.517 µM [rising, partial curve, poor fit]"
Cc1cc(OCCCn2ccnc2)ccc1C(C)C,5.67,,"2.59 µM [rising, full curve]"
CCC12CN3CC(CC)(CN(C1)C31C(=O)N(C)c3ccc(C)cc31)C2=O (stereo not drawn),-1.14,,"3.66 µM [falling, single point]"
COCC(=O)Oc1c(S(=O)(=O)c2ccccc2)c(C)nn1C(C)(C)C,-18,"0.116 µM [falling, full curve, poor fit]",
Nc1nonc1N/N=C\c1ccccc1,15.3,,"9.2 µM [rising, partial curve]"
O=C(C1CC(c2ccccc2O)=NO1)N1CCCCC1 (stereo not drawn),-3.32,,"6.51 µM [falling, single point]"
Cc1ccc(-n2nc3c(SCCN4CCOCC4)nnc(C)c3c2C)cc1,29.6,,"16.4 µM [rising, partial curve]"
CCC(Oc1ccccc1)C(=O)Nc1nc2ccccc2[nH]1 (stereo not drawn),-21.4,,"0.651 µM [rising, full curve]"
Nc1nn2c(C(F)(F)F)cc(=O)[nH]c2c1N=Nc1cccc(F)c1,32.7,"1.3 µM [rising, partial curve]",
COc1ccc(NC(=O)CC(C(=O)O)N2CCCCC2)cc1 (stereo not drawn),12.5,,"0.116 µM [falling, full curve, poor fit]"
CCC(C)NC(=O)CSc1nc2ccc(N3CCOCC3)cc2c(=O)n1CCc1ccccc1 (stereo not drawn),-13.8,,
CCN1C(=O)CC(Sc2ccccc2C(=O)O)C1=O (stereo not drawn),-11.9,,
CC1CC2c3cccc(C(=O)O)c3C(=O)N2c2ccc(Cl)cc21 (stereo not drawn),-27.9,,
COc1ccccc1N(Cc1cc2cccc(C)c2[nH]c1=O)C(=O)C(C)C,-12.6,,"0.291 µM [rising, full curve, poor fit]"
COc1ccc(C(=O)NC(=S)NC2CCSC2=O)cc1 (stereo not drawn),2.27,,"29.1 µM [rising, single point]"
Cc1cccc(/C(N)=N/OC(=O)COc2ccc(Cl)c(C)c2)c1,-4.44,,"16.4 µM [rising, partial curve]"
CCOC(=O)n1c(=O)[nH]c2ccc(Br)cc21,-13.6,,"6.51 µM [falling, partial curve, poor fit]"

SMILES,cell number change [%],AC50 [1],AC50 [2]
O=C(O)C1Cc2[nH]cnc2C(c2ccc(F)cc2)N1 (stereo not drawn),-51.4,"23.1 µM [falling, single point]","18.4 µM [falling, single point]"
CC(C)=CC(=O)OCC(=O)Nc1ccc(F)cc1Cl,-7.58,,
O=C(C1CCN(S(=O)(=O)c2ccc(Cl)cc2)CC1)N1CCCCCCC1,4.33,,"0.82 µM [falling, full curve, poor fit]"
O=c1cc(CO)oc(C(Nc2cccc(C(F)(F)F)c2)c2ccccn2)c1O (stereo not drawn),9.77,,"32.6 µM [falling, single point]"
O=C(CSc1nc2ncc(Br)cc2[nH]1)Nc1ccccc1-c1ccccc1,3.28,,"20.6 µM [falling, single point]"
CCC(CC)c1nnc(NC(=O)C2COc3ccccc3O2)s1 (stereo not drawn),139,"29.1 µM [rising, single point]",
Cc1cc(C(=O)NNC(=O)CN2C(=O)NC3(CCCCC3)C2=O)c(C)o1,-2.33,,"8.2 µM [falling, single point]"
COc1cccc(C(=O)NCc2ccc(-c3nc4ccccc4s3)cc2)c1,,"0.092 µM [rising, full curve, poor fit]","0.231 µM [rising, full curve, poor fit]"
CCC(C)[C@H](NC(=O)CCn1nnc2ccccc2c1=O)C(=O)O (stereo partly drawn),7.48,,"5.17 µM [falling, partial curve, poor fit]"
C/C(=N\NC(N)=O)c1ccc(-n2ccnc2)cc1,37.2,,"0.00651 µM [rising, full curve, poor fit]"
N#Cc1c(C(F)(F)F)cc(-c2ccc(F)cc2)[nH]c1=O,1.99,"6.51 µM [rising, single point]","2.06 µM [rising, partial curve]"
COc1cc(OC)c(C=O)c(OC(=O)N2CCOCC2)c1,-9.85,,"0.103 µM [falling, partial curve, poor fit]"
COc1cccc(C2C(C(=O)c3cc4ccccc4o3)=C(O)C(=O)N2c2cc(C)on2)c1 (stereo not drawn),27.6,,
COc1ccccc1N1CCN(C(=O)C2CCCN(c3ncnc4c3nc3n4CCCCC3)C2)CC1 (stereo not drawn),4.48,,"29.1 µM [rising, single point]"
CCC(ONc1ccccc1C(F)(F)F)(C(=O)NN(C)C)c1ccccc1 (stereo not drawn),-1.08,"0.58 µM [falling, partial curve, poor fit]","29.1 µM [rising, single point]"
Cc1ccc(NC(=O)CCCC2CCCCC2)c(O)c1,-12.7,,
CC(C)OCCCNc1ncnc2c1[nH]c1ccc(F)cc12,-66.9,"20.6 µM [falling, single point]",
COc1cc(/C=C2/SC(=O)N(CC(=O)N3CCCC3)C2=O)ccc1Oc1ccc([N+](=O)[O-])cn1,,,"6.51 µM [falling, single point]"
CN(C)S(=O)(=O)c1ccc(N2CCCC2)c(C(=O)NC2(C)CCS(=O)(=O)C2)c1 (stereo not drawn),1.5,,
Cc1cc[n+](CC(=O)Nc2nc3ccccc3s2)cc1,1.55,"2.06 µM [falling, partial curve]","2.31 µM [falling, partial curve]"

# Structures above that have bromine (2):
SMILES,cell number change [%],AC50 [1],AC50 [2]
CCOC(=O)n1c(=O)[nH]c2ccc(Br)cc21,-13.6,,"6.51 µM [falling, partial curve, poor fit]"
O=C(CSc1nc2ncc(Br)cc2[nH]1)Nc1ccccc1-c1ccccc1,3.28,,"20.6 µM [falling, single point]"
